Reference: publication PMC3972135
These are yes or no findings as the source states them, for the method shown. For some assays here: Binding seen in cells or lysates may run through a third protein. Some binding calls cover weakened binding; strength is not graded here. Tags and fused reporters may be left off the sequences shown.

The chains behind the UniProt entries cited, without tags or fusion partners.
UniProt P80297: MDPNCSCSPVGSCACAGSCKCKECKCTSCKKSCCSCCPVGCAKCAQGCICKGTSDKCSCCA

Columns and labels:
HA-FHL3 (human) = target: T1, HA-FHL3 (human) (UniProt Q13643); assay: co-IP; 293T cells co-transfected with pCMV-HA/FHL3 and pCMV-Myc/MT-1X, Triton lysis buffer (20 mM Tris-HCl pH 7.6, 120 mM NaCl, 1% Triton X-100), 4°C; methods: IP with anti-Myc or control anti-IgG; blot with anti-myc and anti-HA
T1 sequence: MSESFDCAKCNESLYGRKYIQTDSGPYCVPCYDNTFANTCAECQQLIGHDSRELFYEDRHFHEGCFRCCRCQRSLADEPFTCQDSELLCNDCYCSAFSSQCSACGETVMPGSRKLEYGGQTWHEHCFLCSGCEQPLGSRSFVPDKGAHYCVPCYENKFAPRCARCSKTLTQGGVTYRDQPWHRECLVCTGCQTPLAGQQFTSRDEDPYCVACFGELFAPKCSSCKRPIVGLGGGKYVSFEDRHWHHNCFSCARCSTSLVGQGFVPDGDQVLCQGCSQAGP

[1] = target: T2, FHL3 mutant with sequential deletion of LIM4 (FHL3d4), GAL4 DNA-binding domain fusion (human) (UniProt Q13643); assay: two-hybrid; co-transformation of pAS2-1/FHL3d4 and pACT2/MT-1X into yeast Y190; SD/-Leu-Trp-His, coloration (β-galactosidase) analysis
T2 sequence: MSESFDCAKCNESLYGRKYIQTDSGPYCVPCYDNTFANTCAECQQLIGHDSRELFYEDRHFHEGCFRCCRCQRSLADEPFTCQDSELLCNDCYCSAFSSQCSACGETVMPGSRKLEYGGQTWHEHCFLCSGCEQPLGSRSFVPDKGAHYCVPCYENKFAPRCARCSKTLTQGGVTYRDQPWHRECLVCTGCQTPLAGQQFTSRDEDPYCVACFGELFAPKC

Row | binding (HA-FHL3 (human)) | binding [1] | Substance
1 | binds |  | Myc-MT-1X (from UniProt P80297 1-61)
2 |  | binds | full length MT-1X, GAL4 activation domain fusion (from UniProt P80297 1-61)
